From PubChem BioAssay AID328 (DTP/NCI, 2004)
The list is a part of this screen's results and no random one: it gathers some chemical classes. Other doses and runs of a compound may be missing. T/C: endpoint of the treated group in % of that of the vehicle group. Some doses have a count of surviving animals in place of a T/C: the source files T/C as zero there, which appears to mark a toxic dose or a test without result, not a measured value. Some survivor counts are full or nearly so, which does not show that the dose was tolerated: survival well below the control is almost never listed, so the zero probably covers shortened survival too. Counts of survivors are from the toxicity check (mostly the fifth day) where no day follows; animals may have died later. Schedules are NCI's codes, taken here to give the interval after Q, in days (D) or hours (H), and the number of doses after X. Some complexes appear as separate parts, the way the source draws them; their charges need not add up. For survival time, this PubChem deposit counts one and a half times the control or more as active, and values a quarter to a half above the control carry no call in these data; other NCI protocols may use other cut-offs. Some entries were tested several times; the values are given in rising order. Some entries show no survivor count and are marked so; the dose need not have been tolerated. Some T/C values carry the count of animals alive at the toxicity check (mostly the fifth day); where neither a count nor a note follows, no animal had died by that day.

Test system: BDF1 mice, P388 leukemia ip, median survival T/C
Assay: NCI In Vivo Anticancer Drug Screen. Data for tumor model P388 Leukemia (intraperitoneal) in B6D2F1 (BDF1) mice
Conditions: T/C endpoint: median survival time, higher T/C = longer survival
Procedure, shortened: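 Reported as T/C, where T is the survival measurement in dosed animals and C the same measurement in vehicle controls.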

[1] = dose: 50.0 mg/kg/injection, schedule: Q04DX003 (ip), vehicle: saline
[2] = dose: 90.0 mg/kg/injection, schedule: Q04DX003 (ip), vehicle: saline
[3] = dose: 100.0 mg/kg/injection, schedule: Q04DX003 (ip), vehicle: saline
[4] = dose: 133.0 mg/kg/injection, schedule: Q04DX003 (ip), vehicle: saline
[5] = dose: 200.0 mg/kg/injection, schedule: Q04DX003 (ip), vehicle: saline
[6] = dose: 300.0 mg/kg/injection, schedule: Q04DX003 (ip), vehicle: saline
[7] = dose: 400.0 mg/kg/injection, schedule: Q04DX003 (ip), vehicle: saline
[8] = dose: 50.0 mg/kg/injection, schedule: Q01DX009 (ip), vehicle: saline with Tween-80
[9] = dose: 100.0 mg/kg/injection, schedule: Q01DX009 (ip), vehicle: saline with Tween-80
[10] = dose: 200.0 mg/kg/injection, schedule: Q01DX009 (ip), vehicle: saline with Tween-80
[11] = dose: 100.0 mg/kg/injection, schedule: Q04DX003 (ip), vehicle: Klucel (hydroxypropylcellulose) (HPC)
[12] = dose: 200.0 mg/kg/injection, schedule: Q04DX003 (ip), vehicle: Klucel (hydroxypropylcellulose) (HPC)
[13] = dose: 100.0 mg/kg/injection, schedule: Q01DX009 (ip), vehicle: Klucel (hydroxypropylcellulose) (HPC)
[14] = dose: 200.0 mg/kg/injection, schedule: Q01DX009 (ip), vehicle: Klucel (hydroxypropylcellulose) (HPC)

In the case of NP(=O)(O)N(CCCl)CCCl, the T/C [1] is reported as 187 % of control, the T/C [2] is reported as 222 and 268 % of control and the T/C [3] is reported as 225 % of control. The T/C [4] was 259 [5 of 6 alive] and 272 % of control, the T/C [5] was 177, 250, 272 % of control and the survivor count [6] was 0 of 6. For the same molecule, the survivor count [7] was 1 of 6.

NC1=NCCN1[N+](=O)[O-] was tested, and the T/C [3] was 100 % of control, the T/C [5] was 105 % of control [5 of 6 alive] and the survivor count [7] was 2 of 6.

In the case of CC(C)(C)C1CNP(C)(=O)OC1 (centres undefined), the T/C (dose: 50.0 mg/kg/injection, schedule: Q01DX005 (ip), vehicle: saline) is reported as 99 % of control, the T/C (dose: 100.0 mg/kg/injection, schedule: Q01DX005 (ip), vehicle: saline) is reported as 99 % of control and the survivor count (dose: 200.0 mg/kg/injection, schedule: Q01DX005 (ip), vehicle: saline) is reported as 0 of 6.

For O=[N+]([O-])c1cccc2cn([N+](=O)[O-])nc12, the T/C (dose: 3.12 mg/kg/injection, schedule: Q01DX009 (ip), vehicle: saline with Tween-80) was 99 % of control [5 of 6 alive], the T/C (dose: 6.25 mg/kg/injection, schedule: Q01DX009 (ip), vehicle: saline with Tween-80) was 101 % of control and the T/C (dose: 12.5 mg/kg/injection, schedule: Q01DX009 (ip), vehicle: saline with Tween-80) was 108 % of control. The survivor count [8] was 0 of 6, the survivor count [9] was 0 of 6 and the survivor count [10] was 0 of 6.

Cc1cc(C)c2ccccc2n1.O=[N+]([O-])c1cc([N+](=O)[O-])c(O)c([N+](=O)[O-])c1 was tested, and the T/C (dose: 50.0 mg/kg/injection, schedule: Q04DX003 (ip), vehicle: Klucel (hydroxypropylcellulose) (HPC)) was 104 % of control [survivor count not shown], the T/C [11] was 104 % of control [survivor count not shown] and the T/C [12] was 100 % of control [survivor count not shown].

With NNS(=O)(=O)c1ccc(N(CCCl)CCCl)cc1 the T/C [9] was 90 % of control, the survivor count [10] was 6 of 6 and the survivor count (dose: 400.0 mg/kg/injection, schedule: Q01DX009 (ip), vehicle: saline with Tween-80) was 6 of 6.

In the case of CCOCCOCCSP(C)(=O)OC(C)C (centres undefined), the T/C (dose: 3.12 mg/kg/injection, schedule: Q01DX005 (ip), vehicle: saline) is reported as 97 % of control.

In the case of COc1ccc2nccc(C[C@@H]3CC4CCN3CC4)c2c1.O=[N+]([O-])c1cc([N+](=O)[O-])c(O)c([N+](=O)[O-])c1, the T/C (dose: 100.0 mg/kg/injection, schedule: Q01DX001 (ip), vehicle: saline with Tween-80) is reported as 99 % of control [survivor count not shown], the T/C (dose: 200.0 mg/kg/injection, schedule: Q01DX001 (ip), vehicle: saline with Tween-80) is reported as 91 % of control [survivor count not shown] and the T/C (dose: 400.0 mg/kg/injection, schedule: Q01DX001 (ip), vehicle: saline with Tween-80) is reported as 91 % of control [survivor count not shown].

In the case of C1C[N-]1.C1C[N-]1.C1C[N-]1.[Br][Rh]([Br])[Br], the T/C (dose: 50.0 mg/kg/injection, schedule: Q01DX009 (ip), vehicle: Klucel (hydroxypropylcellulose) (HPC)) is reported as 105 % of control, the T/C [13] is reported as 105 % of control and the survivor count [13] is reported as 6 of 6. The T/C [11] was 100 % of control, the T/C [14] was 105 % of control and the survivor count [14] was 5 of 6. For the same molecule, the T/C [12] was 105 % of control [5 of 6 alive], the T/C (dose: 400.0 mg/kg/injection, schedule: Q01DX009 (ip), vehicle: Klucel (hydroxypropylcellulose) (HPC)) was 86 % of control and the T/C (dose: 400.0 mg/kg/injection, schedule: Q04DX003 (ip), vehicle: Klucel (hydroxypropylcellulose) (HPC)) was 100 % of control.

For O=[N+]([O-])c1ccc2cn([N+](=O)[O-])nc2c1, the survivor count (dose: 100.0 mg/kg/injection, schedule: Q04DX003 (ip), vehicle: saline with Tween-80) was 1 of 6, the survivor count (dose: 200.0 mg/kg/injection, schedule: Q04DX003 (ip), vehicle: saline with Tween-80) was 0 of 6 and the survivor count (dose: 400.0 mg/kg/injection, schedule: Q04DX003 (ip), vehicle: saline with Tween-80) was 0 of 6.

For N/C(=N\N=C\c1ccc([N+](=O)[O-])o1)N[N+](=O)[O-], the survivor count [8] was 6 of 6, the T/C [9] was 100 % of control [5 of 6 alive] and the T/C [10] was 86 % of control.

COC1OC(CNCCCl)C2OC(C)(C)OC12 (centres undefined) was tested, and the T/C (dose: 40.0 mg/kg/injection, schedule: Q04DX003 (ip), vehicle: saline) was 133 % of control, the survivor count (dose: 60.0 mg/kg/injection, schedule: Q04DX003 (ip), vehicle: saline) was 2 of 3 and the T/C [2] was 152 % of control. For the same molecule, the T/C (dose: 100.0 mg/kg/injection, schedule: Q01DX009 (ip), vehicle: saline) was 158 % of control, the T/C [3] was 130 % of control and the T/C [4] was 160 % of control. The survivor count (dose: 177.0 mg/kg/injection, schedule: Q01DX009 (ip), vehicle: saline) was 6 of 6, the T/C (dose: 200.0 mg/kg/injection, schedule: Q01DX009 (ip), vehicle: saline) was 162 % of control and the T/C [5] was 150 and 175 % of control. For the same molecule, the T/C (dose: 266.0 mg/kg/injection, schedule: Q01DX009 (ip), vehicle: saline) was 108 % of control, the T/C [6] was 180 % of control and the T/C (dose: 400.0 mg/kg/injection, schedule: Q01DX009 (ip), vehicle: saline) was 129 and 204 % of control. For the same molecule, the T/C [7] was 173 % of control and the survivor count (dose: 600.0 mg/kg/injection, schedule: Q01DX009 (ip), vehicle: saline) was 3 of 6.

For NP1(=O)C=CN(Cc2ccccc2)C(=O)N1 (centres undefined), the T/C [3] was 100 % of control, the T/C [5] was 101 % of control and the T/C [7] was 103 % of control.

O=C(O)/C=C\c1ccccc1N(CCCl)CCCl was tested, and the T/C (dose: 5.2 mg/kg/injection, schedule: Q01DX009 (ip), vehicle: saline) was 109 % of control, the T/C (dose: 7.9 mg/kg/injection, schedule: Q01DX009 (ip), vehicle: saline) was 176 % of control and the T/C (dose: 12.0 mg/kg/injection, schedule: Q01DX009 (ip), vehicle: saline) was 190 % of control. The T/C (dose: 12.5 mg/kg/injection, schedule: Q01DX009 (ip), vehicle: saline) was 127 % of control, the T/C (dose: 18.75 mg/kg/injection, schedule: Q01DX009 (ip), vehicle: saline) was 145, 225, 230 % of control and the T/C (dose: 28.0 mg/kg/injection, schedule: Q01DX009 (ip), vehicle: saline) was 160 % of control. The T/C (dose: 28.13 mg/kg/injection, schedule: Q01DX009 (ip), vehicle: saline) was 177 % of control, the T/C (dose: 33.0 mg/kg/injection, schedule: Q04DX003 (ip), vehicle: saline) was 175 % of control and the T/C (dose: 37.5 mg/kg/injection, schedule: Q01DX009 (ip), vehicle: saline) was 125 % of control. For the same molecule, the T/C (dose: 50.0 mg/kg/injection, schedule: Q04DX003 (ip), vehicle: alcohol) was 231 % of control, the T/C [1] was 220 % of control and the survivor count (dose: 75.0 mg/kg/injection, schedule: Q01DX009 (ip), vehicle: saline) was 3 of 6. The T/C (dose: 75.0 mg/kg/injection, schedule: Q04DX003 (ip), vehicle: saline) was 245 % of control, the survivor count (dose: 100.0 mg/kg/injection, schedule: Q04DX003 (ip), vehicle: alcohol) was 6 of 6 and the survivor count (dose: 200.0 mg/kg/injection, schedule: Q04DX003 (ip), vehicle: alcohol) was 1 of 6.

With C1CCC2(CC1)C[N+]21CCCC1 the T/C [1] was 90 % of control, the T/C [3] was 100 % of control and the T/C [5] was 104 % of control.
